Laboratory results published in doi:10.1101/2024.08.01.605889.
These are yes or no findings as the source states them, for the method shown. In cells and extracts the contact can be indirect. Some binding calls cover weakened binding; strength is not graded here.

The chains behind the UniProt entries cited, without tags or fusion partners.
UniProt P14635: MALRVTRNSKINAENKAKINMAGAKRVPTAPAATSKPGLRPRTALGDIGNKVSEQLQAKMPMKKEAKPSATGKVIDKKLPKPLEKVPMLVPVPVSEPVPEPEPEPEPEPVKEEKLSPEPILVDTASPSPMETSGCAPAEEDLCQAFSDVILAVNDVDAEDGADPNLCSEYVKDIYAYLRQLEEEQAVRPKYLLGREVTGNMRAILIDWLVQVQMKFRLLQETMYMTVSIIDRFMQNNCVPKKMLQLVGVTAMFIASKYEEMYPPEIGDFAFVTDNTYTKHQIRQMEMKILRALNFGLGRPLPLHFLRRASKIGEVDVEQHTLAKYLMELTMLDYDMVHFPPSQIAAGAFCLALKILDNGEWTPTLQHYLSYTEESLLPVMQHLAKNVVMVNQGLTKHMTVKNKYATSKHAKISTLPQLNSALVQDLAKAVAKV

Target: cyclin B1 (human (endogenous in NCI-H1048 and NCI-H446)) (UniProt P14635)
Experiment: co-IP

B1: Myt1 (enzyme, UniProt Q99640 1-499)
chain: MLERPPALAMPMPTEGTPPPLSGTPIPVPAYFRHAEPGFSLKRPRGLSRSLPPPPPAKGSIPISRLFPPRTPGWHQLQPRRVSFRGEASETLQSPGYDPSRPESFFQQSFQRLSRLGHGSYGEVFKVRSKEDGRLYAVKRSMSPFRGPKDRARKLAEVGSHEKVGQHPCCVRLEQAWEEGGILYLQTELCGPSLQQHCEAWGASLPEAQVWGYLRDTLLALAHLHSQGLVHLDVKPANIFLGPRGRCKLGDFGLLVELGTAGAGEVQEGDPRYMAPELLQGSYGTAADVFSLGLTILEVACNMELPHGGEGWQQLRQGYLPPEFTAGLSSELRSVLVMMLEPDPKLRATAEALLALPVLRQPRAWGVLWCMAAEALSRGWALWQALLALLCWLWHGLAHPASWLQPLGPPATPPGSPPCSLLLDSSLSSNWDDDSLGPSLSPEAVLARTVGSTSTPRSRCTPRDALDLSDINSEPPRGSFPSFEPRNLLSLFEDTLDPT
**Q.** For B1, which binding is on record?
**A.** binds
